Assay results published in patent publication US20090223903A1, “METHODS AND APPARATUSES FOR C[…] WATER” (priority 2007, published 2009).

How the values were obtained:
[1] = pH time response of simulated pool water in a 6 L vessel with an operating DuoClear 15 electrolytic chlorinator
[2] = pH control in a 200 gallon mini-pool with electrolytic chlorination and metered ZnCl2 addition

[Cl-].[Cl-].[Zn+2] [zinc chloride]
net increase in pH ([1]; 12.2 mM aqueous solution via peristaltic pump at 10.5 ml/min, over 60 minutes of operation): about 0.8 pH units
pH increase ([1]; 25 mM solution at 10.2 ml/min, over 60 minutes of operation): about 0.2 pH units
initial pH after zinc chloride addition and mixing ([1]; 6.28 g batch addition, mixed overnight, pH before addition 7.9): 6.0
increase in pH ([1]; 6.28 g zinc chloride one-time batch addition to 6 L conditioned water, mixed overnight, over 60 minutes of chlorinator operation): approximately 1.25 pH units
pH drop after ZnCl2 pump turned off ([2]; after 125 minutes elapsed, ZnCl2 pump off, chlorination continued): 0.02 units
pH increase ([2]; chlorination 2 g/hr plus continuous metered 25 mM ZnCl2 at 1.2 liters/hr, over 125 minutes with metering pump operating): no pH increase
pH increase after ZnCl2 pump turned off ([2]; over a 200 minute period after ZnCl2 pump off, excess ZnCl2 consumed): 0.35 units
